In publication PMC8396027:
These are yes or no findings as the source states them, for the method shown. Some results given as binding are weak or reduced against the parent protein; the word gives no strength.

Chains of the proteins cited; added tags and fusions are not shown. Residues count along the entry.
UniProt P08195, residues 102-630: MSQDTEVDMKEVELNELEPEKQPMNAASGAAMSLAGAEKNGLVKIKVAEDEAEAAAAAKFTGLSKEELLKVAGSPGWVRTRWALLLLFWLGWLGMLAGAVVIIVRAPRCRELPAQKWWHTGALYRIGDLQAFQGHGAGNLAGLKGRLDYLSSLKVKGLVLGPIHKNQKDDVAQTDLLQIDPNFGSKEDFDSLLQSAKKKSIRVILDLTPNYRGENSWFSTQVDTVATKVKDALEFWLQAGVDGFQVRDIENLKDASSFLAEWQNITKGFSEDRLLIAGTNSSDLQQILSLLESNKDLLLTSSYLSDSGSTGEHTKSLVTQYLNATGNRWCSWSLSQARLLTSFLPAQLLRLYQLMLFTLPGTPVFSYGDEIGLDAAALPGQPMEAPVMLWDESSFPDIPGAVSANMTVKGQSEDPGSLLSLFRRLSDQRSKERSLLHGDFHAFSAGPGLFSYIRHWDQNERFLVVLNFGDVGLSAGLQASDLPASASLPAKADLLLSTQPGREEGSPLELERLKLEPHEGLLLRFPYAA
UniProt Q01650: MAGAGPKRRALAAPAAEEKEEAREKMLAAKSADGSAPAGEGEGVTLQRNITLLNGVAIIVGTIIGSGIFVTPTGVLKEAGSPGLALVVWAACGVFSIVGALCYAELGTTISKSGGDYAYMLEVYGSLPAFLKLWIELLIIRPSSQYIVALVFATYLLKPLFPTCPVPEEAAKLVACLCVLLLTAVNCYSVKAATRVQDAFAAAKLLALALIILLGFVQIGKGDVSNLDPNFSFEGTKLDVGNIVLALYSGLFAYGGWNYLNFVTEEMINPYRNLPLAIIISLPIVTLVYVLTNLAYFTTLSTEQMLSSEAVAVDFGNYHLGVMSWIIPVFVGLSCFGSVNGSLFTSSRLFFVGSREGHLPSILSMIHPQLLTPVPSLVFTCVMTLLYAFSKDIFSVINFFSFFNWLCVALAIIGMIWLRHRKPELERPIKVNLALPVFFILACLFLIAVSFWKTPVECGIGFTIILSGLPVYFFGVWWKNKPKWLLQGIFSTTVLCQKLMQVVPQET

Experiments:
[1] = target: human 4F2hc (SLC3A2), heavy subunit of the heterodimeric amino acid transporter 4F2hc-LAT1 (human) (UniProt P08195); assay: double affinity co-purification (Ni-NTA, then Strep-Tactin); membranes of P. pastoris co-expressing both subunits solubilised in LMNG/CHS; first Ni-NTA by the His-tag of 4F2hc (exchange to GDN), then Strep-Tactin XT by the Strep-tag of LAT1; 100 mM BTP-HCl pH 8.0, 150-300 mM NaCl, 4 °C
[2] = target: human 4F2hc (SLC3A2), heavy subunit of the heterodimeric amino acid transporter 4F2hc-LAT1 (human) (UniProt P08195); assay: negative-stain transmission electron microscopy; double affinity and SEC-purified 4F2hc-LAT1 in GDN at 50 µg/mL on carbon-coated grids, 0.75% uranyl formate; both purified
[3] = target: human 4F2hc (SLC3A2), heavy subunit of the heterodimeric amino acid transporter 4F2hc-LAT1 (human) (UniProt P08195); assay: non-reducing SDS-PAGE with Coomassie staining and Western blot; double affinity purified 4F2hc-LAT1 on 10% SDS-PAGE, non-reducing against reducing (DTT) conditions; blots with anti-His-tag and anti-Strep-tag antibodies; disulfide-linked heterodimer; both purified
[4] = target: human 4F2hc (SLC3A2), heavy subunit of the heterodimeric amino acid transporter 4F2hc-LAT1 (human) (UniProt P08195); assay: SEC; double affinity purified 4F2hc-LAT1, about 1 mg/mL, Superose 6 3.2/300, 20 mM BTP-HCl pH 8.0, 150 mM NaCl, 2% glycerol, 0.05% GDN; both purified

binding [1]: binds
binding [2]: binds
binding [3]: binds
binding [4]: binds
Substance: human L-type amino acid transporter LAT1 (SLC7A5), light subunit of the heterodimeric amino acid transporter 4F2hc-LAT1 (from UniProt Q01650 1-507)
